# Results as given in the supplement of paper PMC8728848.
# This is one part of the list.
# B1: CD4 (Rattus norvegicus), P05540 (protein)
# chain: MCRGFSFRHLLPLLLLQLSKLLVVTQGSTSITAYKSEGESAEFSFPLNLGEESLQGELRWKAEKAPSSQSWITFSLKNQKVSVQKSTSNPKFQLSETLPLTLQIPQVSLQFAGSGNLTLTLDRGILYQEVNLVVMKVTQPDSNTLTCEVMGPTSPKMRLILKQENQEARVSRQEKVIQVQAPEAGVWQCLLSEGEEVKMDSKIQVLSKGLNSGGGSGGGTGGGDLAPQMLRELQETNAALQDVRELLRQQVKEITFLKNTVMECDACGLDRNLPPLAPLGPHPETLVKVKDAEDQLGARVGYIELDLNSGKILESFRPEERFPMMSTFKVLLCGAVLSRIDAGQEQLGRRIHYSQNDLVEYSPVTEKHLTDGMTVRELCSAAITMSDNTAANLLLTTIGGPKELTAFLHNMGDHVTRLDRWEPELNEAIPNDERDTTMPVAMATTLRKLLTGELLTLASRQQLIDWMEADKVAGPLLRSALPAGWFIADKSGAGERGSRGIIAALGPDGKPSRIVVIYTTGSQATMDERNRQIAEIGASLIKHW
# Tests used:
# Test in all cases: glycan array binding signal (z-score within array); higher = stronger binding
# Settings in all cases: glycan notation: IUPAC condensed, linker removed
# [1] = molecular target: Fuc(a1-3)GlcNAc
# Procedure, shortened: (§1)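 Glycan array binding is given as a within-array Z-score, which can be read as non-binding when negative. The arrays, 3228 of them, came from the Consortium for Functional Glycomics database and were retained only where the protein sequence was available. Z-scores were averaged across arrays of the same protein sequence at different concentrations or buffers and across linkers.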
# [2] = molecular target: Fuc(a1-3)[Gal(b1-4)]Glc6S
# Procedure, shortened: as §1
# [3] = molecular target: Fuc(a1-3)[Gal(b1-4)]GlcNAc
# Procedure, shortened: as §1
# [4] = molecular target: Fuc(a1-3)[Gal(b1-4)]GlcNAc(b1-2)Man
# Procedure, shortened: as §1
# [5] = molecular target: Fuc(a1-3)[Gal(b1-4)]GlcNAc(b1-2)Man(a1-3)[Fuc(a1-3)[Gal(b1-4)]GlcNAc(b1-2)Man(a1-6)]Man(b1-4)GlcNAc(b1-4)GlcNAc
# Procedure, shortened: as §1
# [6] = molecular target: Fuc(a1-3)[Gal(b1-4)]GlcNAc(b1-2)Man(a1-3)[Fuc(a1-3)[Gal(b1-4)]GlcNAc(b1-2)Man(a1-6)]Man(b1-4)GlcNAc(b1-4)[Fuc(a1-6)]GlcNAc
# Procedure, shortened: as §1
# [7] = molecular target: Fuc(a1-3)[Gal(b1-4)]GlcNAc(b1-3)Gal(b1-3)[Fuc(a1-4)]GlcNAc
# Procedure, shortened: as §1
# [8] = molecular target: Fuc(a1-3)[Gal(b1-4)]GlcNAc(b1-3)GalNAc
# Procedure, shortened: as §1
# [9] = molecular target: Fuc(a1-3)[Gal(b1-4)]GlcNAc(b1-4)Gal(b1-4)[Fuc(a1-3)]GlcNAc
# Procedure, shortened: as §1
# [10] = molecular target: Fuc(a1-3)[Gal(b1-4)]GlcNAc(b1-4)Gal(b1-4)[Fuc(a1-3)]GlcNAc(b1-4)Gal(b1-4)[Fuc(a1-3)]GlcNAc
# Procedure, shortened: as §1
# [11] = molecular target: Fuc(a1-3)[Gal(b1-4)]GlcNAc(b1-6)GalNAc
# Procedure, shortened: as §1
# [12] = molecular target: Fuc(a1-3)[Gal(b1-4)]GlcNAc(b1-6)[Gal(b1-3)GlcNAc(b1-3)]Gal(b1-4)Glc
# Procedure, shortened: as §1
# [13] = molecular target: Fuc(a1-3)[Gal(b1-4)]GlcNAc6S
# Procedure, shortened: as §1
# [14] = molecular target: Fuc(a1-3)[Gal3S(b1-4)]Glc
# Procedure, shortened: as §1
# [15] = molecular target: Fuc(a1-3)[Gal3S(b1-4)]GlcNAc
# Procedure, shortened: as §1
# [16] = molecular target: Fuc(a1-3)[Gal3S(b1-4)]GlcNAc6S
# Procedure, shortened: as §1
# [17] = molecular target: Fuc(a1-3)[GalNAc(b1-4)]GlcNAc
# Procedure, shortened: as §1
# [18] = molecular target: Fuc(a1-3)[GalNAc(b1-4)]GlcNAc6S
# Procedure, shortened: as §1
# [19] = molecular target: Fuc(a1-4)GlcNAc
# Procedure, shortened: as §1
# [20] = molecular target: Fuc(b1-3)GlcNAc
# Procedure, shortened: as §1
# [21] = molecular target: Gal(a1-2)Gal
# Procedure, shortened: as §1
# [22] = molecular target: Gal(a1-3)Gal
# Procedure, shortened: as §1
# [23] = molecular target: Gal(a1-3)Gal(b1-3)GlcNAc
# Procedure, shortened: as §1
# [24] = molecular target: Gal(a1-3)Gal(b1-3)GlcNAc(b1-2)Man
# Procedure, shortened: as §1
# [25] = molecular target: Gal(a1-3)Gal(b1-3)GlcNAc(b1-2)Man(a1-3)[Gal(a1-3)Gal(b1-3)GlcNAc(b1-2)Man(a1-6)]Man(b1-4)GlcNAc(b1-4)GlcNAc
# Procedure, shortened: as §1
# [26] = molecular target: Gal(a1-3)Gal(b1-3)GlcNAc(b1-3)GalNAc
# Procedure, shortened: as §1
# [27] = molecular target: Gal(a1-3)Gal(b1-3)GlcNAc(b1-6)GalNAc
# Procedure, shortened: as §1
# [28] = molecular target: Gal(a1-3)Gal(b1-3)[Fuc(a1-4)]GlcNAc(b1-2)Man(a1-3)[Gal(a1-3)Gal(b1-3)[Fuc(a1-4)]GlcNAc(b1-2)Man(a1-6)]Man(b1-4)GlcNAc(b1-4)GlcNAc
# Procedure, shortened: as §1
# [29] = molecular target: Gal(a1-3)Gal(b1-4)Glc
# Procedure, shortened: as §1
# [30] = molecular target: Gal(a1-3)Gal(b1-4)GlcNAc
# Procedure, shortened: as §1
# [31] = molecular target: Gal(a1-3)Gal(b1-4)GlcNAc(b1-2)Man
# Procedure, shortened: as §1
# [32] = molecular target: Gal(a1-3)Gal(b1-4)GlcNAc(b1-2)Man(a1-3)[Gal(a1-3)Gal(b1-4)GlcNAc(b1-2)Man(a1-6)]Man(b1-4)GlcNAc(b1-4)GlcNAc
# Procedure, shortened: as §1
# [33] = molecular target: Gal(a1-3)Gal(b1-4)GlcNAc(b1-3)GalNAc
# Procedure, shortened: as §1
# [34] = molecular target: Gal(a1-3)Gal(b1-4)GlcNAc(b1-6)GalNAc
# Procedure, shortened: as §1
# [35] = molecular target: Gal(a1-3)Gal(b1-4)[Fuc(a1-3)]GlcNAc
# Procedure, shortened: as §1
# [36] = molecular target: Gal(a1-3)Gal(b1-4)[Fuc(a1-3)]GlcNAc(b1-2)Man(a1-3)[Gal(a1-3)Gal(b1-4)[Fuc(a1-3)]GlcNAc(b1-2)Man(a1-6)]Man(b1-4)GlcNAc(b1-4)GlcNAc
# Procedure, shortened: as §1
# [37] = molecular target: Gal(a1-3)GalNAc
# Procedure, shortened: as §1
# [38] = molecular target: Gal(a1-3)[Gal(a1-4)]Gal(b1-4)GlcNAc
# Procedure, shortened: as §1
# [39] = molecular target: Gal(a1-4)Gal(b1-3)GlcNAc(b1-2)Man(a1-3)[Gal(a1-4)Gal(b1-3)GlcNAc(b1-2)Man(a1-6)]Man(b1-4)GlcNAc(b1-4)GlcNAc
# Procedure, shortened: as §1
# [40] = molecular target: Gal(a1-4)Gal(b1-4)Glc
# Procedure, shortened: as §1
# [41] = molecular target: Gal(a1-4)Gal(b1-4)GlcNAc
# Procedure, shortened: as §1
# [42] = molecular target: Gal(a1-4)Gal(b1-4)GlcNAc(b1-2)Man(a1-3)[Gal(a1-4)Gal(b1-4)GlcNAc(b1-2)Man(a1-6)]Man(b1-4)GlcNAc(b1-4)GlcNAc
# Procedure, shortened: as §1
# [43] = molecular target: Gal(a1-4)Gal(b1-4)GlcNAc(b1-3)Gal(b1-4)Glc
# Procedure, shortened: as §1
# [44] = molecular target: Gal(a1-4)GlcNAc
# Procedure, shortened: as §1
# [45] = molecular target: Gal(a1-6)Glc
# Procedure, shortened: as §1
# [46] = molecular target: Gal(b1-2)Gal
# Procedure, shortened: as §1
# [47] = molecular target: Gal(b1-3)Gal
# Procedure, shortened: as §1
# [48] = molecular target: Gal(b1-3)Gal(b1-4)GlcNAc
# Procedure, shortened: as §1
# [49] = molecular target: Gal(b1-3)GalNAc
# Procedure, shortened: as §1
# [50] = molecular target: Gal(b1-3)GalNAc(a1-3)[Fuc(a1-2)]Gal(b1-4)Glc
# Procedure, shortened: as §1
# [51] = molecular target: Gal(b1-3)GalNAc(a1-3)[Fuc(a1-2)]Gal(b1-4)GlcNAc
# Procedure, shortened: as §1
# [52] = molecular target: Gal(b1-3)GalNAc(b1-3)Gal
# Procedure, shortened: as §1
# [53] = molecular target: Gal(b1-3)GalNAc(b1-3)Gal(a1-4)Gal(b1-4)Glc
# Procedure, shortened: as §1
# [54] = molecular target: Gal(b1-3)GalNAc(b1-4)Gal(b1-4)Glc
# Procedure, shortened: as §1
# [55] = molecular target: Gal(b1-3)GalNAc(b1-4)[Neu5Ac(a2-3)]Gal(b1-4)Glc
# Procedure, shortened: as §1
# [56] = molecular target: Gal(b1-3)GlcNAc
# Procedure, shortened: as §1
# [57] = molecular target: Gal(b1-3)GlcNAc(a1-3)Gal(b1-4)GlcNAc
# Procedure, shortened: as §1
# [58] = molecular target: Gal(b1-3)GlcNAc(a1-6)Gal(b1-4)GlcNAc
# Procedure, shortened: as §1
# [59] = molecular target: Gal(b1-3)GlcNAc(b1-2)Man
# Procedure, shortened: as §1
# [60] = molecular target: Gal(b1-3)GlcNAc(b1-2)Man(a1-3)[Gal(b1-3)GlcNAc(b1-2)Man(a1-6)]Man(b1-4)GlcNAc(b1-4)GlcNAc
# Procedure, shortened: as §1
binder,measurement,setting,value
B1,glycan array binding signal (z-score),[1],-1.59
same,glycan array binding signal (z-score),[2],-0.879
same,glycan array binding signal (z-score),[3],-0.366
same,glycan array binding signal (z-score),[4],-0.667
same,glycan array binding signal (z-score),[5],-0.554
same,glycan array binding signal (z-score),[6],0.82
same,glycan array binding signal (z-score),[7],-0.514
same,glycan array binding signal (z-score),[8],0.843
same,glycan array binding signal (z-score),[9],0.414
same,glycan array binding signal (z-score),[10],-0.386
same,glycan array binding signal (z-score),[11],0.46
same,glycan array binding signal (z-score),[12],0.161
same,glycan array binding signal (z-score),[13],-0.378
same,glycan array binding signal (z-score),[14],2.21
same,glycan array binding signal (z-score),[15],-0.413
same,glycan array binding signal (z-score),[16],-1.09
same,glycan array binding signal (z-score),[17],2.04
same,glycan array binding signal (z-score),[18],-0.239
same,glycan array binding signal (z-score),[19],-0.208
same,glycan array binding signal (z-score),[20],0.41
same,glycan array binding signal (z-score),[21],-0.821
same,glycan array binding signal (z-score),[22],-0.233
same,glycan array binding signal (z-score),[23],0.726
same,glycan array binding signal (z-score),[24],-0.413
same,glycan array binding signal (z-score),[25],-0.472
same,glycan array binding signal (z-score),[26],0.801
same,glycan array binding signal (z-score),[27],1.16
same,glycan array binding signal (z-score),[28],1.42
same,glycan array binding signal (z-score),[29],-0.699
same,glycan array binding signal (z-score),[30],-0.596
same,glycan array binding signal (z-score),[31],0.938
same,glycan array binding signal (z-score),[32],0.652
same,glycan array binding signal (z-score),[33],-1.02
same,glycan array binding signal (z-score),[34],-1.75
same,glycan array binding signal (z-score),[35],-0.348
same,glycan array binding signal (z-score),[36],1.12
same,glycan array binding signal (z-score),[37],0.161
same,glycan array binding signal (z-score),[38],0.748
same,glycan array binding signal (z-score),[39],-0.131
same,glycan array binding signal (z-score),[40],1.61
same,glycan array binding signal (z-score),[41],0.864
same,glycan array binding signal (z-score),[42],-0.117
same,glycan array binding signal (z-score),[43],3.31
same,glycan array binding signal (z-score),[44],-2.17
same,glycan array binding signal (z-score),[45],-0.376
same,glycan array binding signal (z-score),[46],-0.658
same,glycan array binding signal (z-score),[47],0.504
same,glycan array binding signal (z-score),[48],-0.933
same,glycan array binding signal (z-score),[49],-0.572
same,glycan array binding signal (z-score),[50],-1.2
same,glycan array binding signal (z-score),[51],0.691
same,glycan array binding signal (z-score),[52],-0.637
same,glycan array binding signal (z-score),[53],-0.509
same,glycan array binding signal (z-score),[54],-0.42
same,glycan array binding signal (z-score),[55],1.04
same,glycan array binding signal (z-score),[56],-0.496
same,glycan array binding signal (z-score),[57],-0.73
same,glycan array binding signal (z-score),[58],-0.801
same,glycan array binding signal (z-score),[59],-1.03
same,glycan array binding signal (z-score),[60],-0.655

# As a working copy, part of the list above:
binder,measurement,setting,value
B1,glycan array binding signal (z-score),[29],-0.699
same,glycan array binding signal (z-score),[30],-0.596
same,glycan array binding signal (z-score),[31],0.938
